Data from patent EP1202120A2, “Charge transport compound, elctrophotographic organophotoreceptor comprising the same, and electrographic imaging apparatus and method” (SAMSUNG ELECTRONICS CO., LTD., priority 2000, dated 2002).

How the values were obtained:
[1] = Hole drift mobility by time of flight technique; conditions: 40:60 with PC; for Mobility µ: at 6.4×10^5 V/cm; for α: parameter characterizing mobility field dependence
[2] = Electrostatic testing of inverted dual-layered organophotoreceptors (QEA PDT-2000), Example 1; conditions: for Discharge: 0.05 seconds, 2 microjoules/cm^2 at 780 nm; for Dark Decay: 1-second dark decay after charge-up; for Vacc: acceptance voltage, charge-up at 8 kV, ambient temperature; for Vres: residual voltage after discharge
[3] = Electrostatic testing of inverted dual-layered organophotoreceptors (QEA PDT-2000), Example 2

CCn1c2ccccc2c2cc(C=NN(CCCCCN(N=Cc3ccc4c(c3)c3ccccc3n4CC)c3ccccc3)c3ccccc3)ccc21 [C]
Mobility Relative to HCTM1 [1]: 1.22
Mobility µ [1]: 1.1×10^-5 at 40:60 with PC cm^2/V.s
Discharge [2]: 393 V
Dark Decay [2]: 109 V
Vacc [2]: 512 V
Vres [2]: 50 V

CCCCCCCn1c2ccccc2c2cc(C=NN(CCCCCN(N=Cc3ccc4c(c3)c3ccccc3n4CCCCCCC)c3ccccc3)c3ccccc3)ccc21 [F]
Mobility Relative to HCTM1 [1]: 0.72
Mobility µ [1]: 6.5×10^-6 at 40:60 with PC cm^2/V.s
α [1]: 0.0053
Discharge [2]: 322 V
Dark Decay [2]: 151 V
Vacc [2]: 560 V
Vres [2]: 91 V

CCCCCCCn1c2ccccc2c2cc(C=NN(CCCCCCCCCCN(N=Cc3ccc4c(c3)c3ccccc3n4CCCCCCC)c3ccccc3)c3ccccc3)ccc21 [E]
Mobility Relative to HCTM1 [1]: 1.88
Mobility µ [1]: 1.7×10^-5 at 40:60 with PC cm^2/V.s
α [1]: ~0.006
Discharge [2]: 89 V
Dark Decay [2]: 38 V
Vacc [2]: 596 V
Vres [2]: 468 V

C(=NN(CCCCCN(N=Cc1ccc(N(c2ccccc2)c2ccccc2)cc1)c1ccccc1)c1ccccc1)c1ccc(N(c2ccccc2)c2ccccc2)cc1 [Compound M (m=5)]
Dark Decay ([3]; 1-second dark decay after charge-up): 142 V
Vacc ([3]; acceptance voltage, charge-up at 8 kV, ambient temperature): 363 V
Contrast ([3]; decrease in voltage one second after discharge, 2 microjoules/cm^2 at 780 nm): 195 V
Vres ([3]; final residual voltage after eraser lamp): 18 V

CCn1c2ccccc2c2cc(C=NN(CCCCCCCCCCN(N=Cc3ccc4c(c3)c3ccccc3n4CC)c3ccccc3)c3ccccc3)ccc21 [B]
Discharge [2]: 398 V
Dark Decay [2]: 64 V
Vacc [2]: 575 V
Vres [2]: 58 V
